We go through 1 substance from PMC7063196.

By UniProt entry, the sequences of proteins in these tests, tags left out. Residues count along the entry.
UniProt O35235, residues 139-316: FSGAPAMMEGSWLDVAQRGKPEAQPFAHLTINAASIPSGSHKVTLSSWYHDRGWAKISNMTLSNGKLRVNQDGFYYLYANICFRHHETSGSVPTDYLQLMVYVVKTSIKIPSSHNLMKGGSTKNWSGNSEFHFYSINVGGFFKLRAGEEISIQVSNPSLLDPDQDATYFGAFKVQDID

Results are given in words; binding and its absence hold for the method and conditions named. Some results given as binding are weak or reduced against the parent protein; the word gives no strength.

This assay has as its target T1, receptor activator of nuclear factor kappa-Β (RANK), endogenous in RAW264.7 cells (mouse (endogenous in RAW264.7)) (UniProt O35305).
T1 sequence: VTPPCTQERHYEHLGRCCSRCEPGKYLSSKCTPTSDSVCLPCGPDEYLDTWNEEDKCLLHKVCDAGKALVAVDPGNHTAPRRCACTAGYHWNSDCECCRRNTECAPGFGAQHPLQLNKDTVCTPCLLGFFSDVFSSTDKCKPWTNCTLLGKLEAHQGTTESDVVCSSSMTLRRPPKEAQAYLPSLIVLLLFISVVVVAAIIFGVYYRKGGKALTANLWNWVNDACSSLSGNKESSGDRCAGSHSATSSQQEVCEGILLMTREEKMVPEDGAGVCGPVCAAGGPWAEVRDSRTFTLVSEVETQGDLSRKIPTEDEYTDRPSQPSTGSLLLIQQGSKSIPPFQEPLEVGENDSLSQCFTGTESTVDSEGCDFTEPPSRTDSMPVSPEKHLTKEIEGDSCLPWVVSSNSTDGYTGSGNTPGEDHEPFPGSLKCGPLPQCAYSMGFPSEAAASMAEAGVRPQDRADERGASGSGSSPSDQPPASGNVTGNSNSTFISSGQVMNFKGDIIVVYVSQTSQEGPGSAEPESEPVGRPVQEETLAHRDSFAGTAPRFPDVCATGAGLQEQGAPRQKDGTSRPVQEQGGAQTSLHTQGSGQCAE
Description: immunoblot of cell-associated ligand; RAW264.7 cells cultured with 50 ng/mL RANKL with or without FHb (10 μmol/L heme group) for 5 days; cell-bound RANKL in whole-cell lysates detected by anti-RANKL immunoblot, normalized to GAPDH; only the binder purified. For orientation: A western blot detects proteins with antibodies after separation by electrophoresis.

For “receptor activator of nuclear factor kappa-Β ligand (RANKL), purchased from Miltenyi Biotec (from UniProt O35235 139-316)”, the binding entry is given as “binds”.
